Experimental data as given in the supplement of paper PMC10849652.
The other results are listed elsewhere or left out.

Sequences of proteins named here, by UniProt entry; tags and fusion partners are left off. A change or cut given only in a name is not applied to a line headed by its entry.
UniProt Q5SW79: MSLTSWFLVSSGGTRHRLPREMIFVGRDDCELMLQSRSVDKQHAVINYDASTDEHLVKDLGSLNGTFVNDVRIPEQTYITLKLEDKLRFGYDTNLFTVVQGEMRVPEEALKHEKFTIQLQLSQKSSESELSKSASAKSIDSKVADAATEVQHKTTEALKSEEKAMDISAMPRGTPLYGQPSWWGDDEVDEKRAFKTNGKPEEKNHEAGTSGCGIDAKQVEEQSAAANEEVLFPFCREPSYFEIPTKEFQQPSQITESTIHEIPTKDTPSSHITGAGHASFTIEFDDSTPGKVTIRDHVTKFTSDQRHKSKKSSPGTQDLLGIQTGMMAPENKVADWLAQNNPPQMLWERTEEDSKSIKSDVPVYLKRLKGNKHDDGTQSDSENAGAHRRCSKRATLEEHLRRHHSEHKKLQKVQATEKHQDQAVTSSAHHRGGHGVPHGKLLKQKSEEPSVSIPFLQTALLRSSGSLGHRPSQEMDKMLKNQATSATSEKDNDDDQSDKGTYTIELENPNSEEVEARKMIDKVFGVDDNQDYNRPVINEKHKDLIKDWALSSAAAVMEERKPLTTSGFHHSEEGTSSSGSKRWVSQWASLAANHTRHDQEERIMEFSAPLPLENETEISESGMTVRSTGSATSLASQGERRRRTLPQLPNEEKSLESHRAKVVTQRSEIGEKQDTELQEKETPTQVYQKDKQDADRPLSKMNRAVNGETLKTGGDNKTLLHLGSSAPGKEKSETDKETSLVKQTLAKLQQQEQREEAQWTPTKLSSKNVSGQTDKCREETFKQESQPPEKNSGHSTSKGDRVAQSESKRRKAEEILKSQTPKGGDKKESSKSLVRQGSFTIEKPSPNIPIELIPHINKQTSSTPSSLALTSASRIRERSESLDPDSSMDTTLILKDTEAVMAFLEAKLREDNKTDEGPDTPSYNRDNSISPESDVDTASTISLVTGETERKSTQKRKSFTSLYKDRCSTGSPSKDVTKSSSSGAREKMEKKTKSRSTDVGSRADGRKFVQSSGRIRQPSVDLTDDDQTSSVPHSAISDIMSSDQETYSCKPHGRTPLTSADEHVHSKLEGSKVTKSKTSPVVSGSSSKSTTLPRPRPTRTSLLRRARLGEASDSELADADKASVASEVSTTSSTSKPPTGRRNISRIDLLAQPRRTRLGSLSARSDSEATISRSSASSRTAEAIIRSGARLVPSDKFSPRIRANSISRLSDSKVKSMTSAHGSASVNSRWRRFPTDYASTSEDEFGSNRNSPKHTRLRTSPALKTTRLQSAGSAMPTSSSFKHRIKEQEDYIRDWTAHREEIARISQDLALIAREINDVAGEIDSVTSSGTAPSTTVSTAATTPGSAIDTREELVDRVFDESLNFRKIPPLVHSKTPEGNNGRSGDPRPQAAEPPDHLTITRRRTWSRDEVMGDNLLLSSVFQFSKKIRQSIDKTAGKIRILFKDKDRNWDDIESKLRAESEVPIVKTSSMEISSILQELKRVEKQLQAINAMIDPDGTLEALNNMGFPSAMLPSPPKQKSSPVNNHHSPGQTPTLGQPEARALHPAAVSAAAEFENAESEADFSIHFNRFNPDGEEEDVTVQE
UniProt P08603, whole entry, looked up: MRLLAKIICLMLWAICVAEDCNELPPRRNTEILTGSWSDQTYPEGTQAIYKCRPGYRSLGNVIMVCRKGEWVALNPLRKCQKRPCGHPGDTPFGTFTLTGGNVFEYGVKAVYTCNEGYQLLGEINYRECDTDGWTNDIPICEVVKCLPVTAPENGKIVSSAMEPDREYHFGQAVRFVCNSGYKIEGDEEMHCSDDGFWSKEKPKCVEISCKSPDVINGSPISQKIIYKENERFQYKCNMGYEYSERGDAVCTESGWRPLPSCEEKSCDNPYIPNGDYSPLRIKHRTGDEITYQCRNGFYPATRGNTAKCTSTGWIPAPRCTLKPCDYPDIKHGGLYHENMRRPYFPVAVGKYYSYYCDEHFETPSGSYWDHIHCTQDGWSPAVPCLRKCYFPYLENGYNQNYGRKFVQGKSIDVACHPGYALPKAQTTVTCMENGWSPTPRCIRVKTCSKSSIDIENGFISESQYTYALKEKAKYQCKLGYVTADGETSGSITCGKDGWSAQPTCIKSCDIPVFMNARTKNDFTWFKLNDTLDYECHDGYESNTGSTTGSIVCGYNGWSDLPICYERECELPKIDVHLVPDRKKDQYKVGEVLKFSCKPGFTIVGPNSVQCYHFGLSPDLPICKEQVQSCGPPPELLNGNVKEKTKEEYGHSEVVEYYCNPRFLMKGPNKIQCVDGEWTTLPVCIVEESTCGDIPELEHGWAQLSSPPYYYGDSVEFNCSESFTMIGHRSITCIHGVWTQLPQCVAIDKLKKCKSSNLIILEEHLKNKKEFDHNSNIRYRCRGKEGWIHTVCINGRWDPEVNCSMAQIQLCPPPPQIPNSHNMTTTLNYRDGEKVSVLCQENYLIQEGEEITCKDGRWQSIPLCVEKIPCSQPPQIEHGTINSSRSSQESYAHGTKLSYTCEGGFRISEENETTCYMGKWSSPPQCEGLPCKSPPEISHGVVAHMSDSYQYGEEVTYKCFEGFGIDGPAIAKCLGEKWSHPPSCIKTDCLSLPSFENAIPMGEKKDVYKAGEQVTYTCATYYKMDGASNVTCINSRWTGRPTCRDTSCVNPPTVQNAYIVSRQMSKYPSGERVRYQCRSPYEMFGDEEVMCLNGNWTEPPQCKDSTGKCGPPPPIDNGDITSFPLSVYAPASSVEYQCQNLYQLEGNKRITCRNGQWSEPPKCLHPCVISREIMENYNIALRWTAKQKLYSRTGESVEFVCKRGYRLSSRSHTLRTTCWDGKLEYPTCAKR
UniProt Q9Y281, whole entry, looked up: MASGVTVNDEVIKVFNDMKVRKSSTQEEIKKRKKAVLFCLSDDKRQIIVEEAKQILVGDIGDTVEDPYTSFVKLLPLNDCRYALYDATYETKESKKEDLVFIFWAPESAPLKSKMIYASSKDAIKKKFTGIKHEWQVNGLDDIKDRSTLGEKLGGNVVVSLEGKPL
UniProt Q9UEE9, whole entry, looked up: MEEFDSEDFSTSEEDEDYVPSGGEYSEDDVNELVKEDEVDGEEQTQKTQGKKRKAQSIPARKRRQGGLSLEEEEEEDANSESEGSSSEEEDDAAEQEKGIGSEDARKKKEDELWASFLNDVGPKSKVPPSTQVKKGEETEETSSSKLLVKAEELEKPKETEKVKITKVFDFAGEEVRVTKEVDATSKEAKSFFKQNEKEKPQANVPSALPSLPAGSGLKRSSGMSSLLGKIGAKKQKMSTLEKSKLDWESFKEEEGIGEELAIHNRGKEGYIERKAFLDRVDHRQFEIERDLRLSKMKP
UniProt P60953, whole entry, looked up: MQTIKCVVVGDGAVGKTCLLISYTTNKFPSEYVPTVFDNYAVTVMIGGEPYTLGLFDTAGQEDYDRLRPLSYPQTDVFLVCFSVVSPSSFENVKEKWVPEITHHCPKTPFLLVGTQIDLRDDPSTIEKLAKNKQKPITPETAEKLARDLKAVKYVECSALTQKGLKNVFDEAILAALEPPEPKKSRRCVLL
UniProt Q8NHZ8, whole entry, looked up: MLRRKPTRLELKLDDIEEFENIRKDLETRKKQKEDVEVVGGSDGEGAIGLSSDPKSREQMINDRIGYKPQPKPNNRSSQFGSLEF
UniProt Q9Y5S2: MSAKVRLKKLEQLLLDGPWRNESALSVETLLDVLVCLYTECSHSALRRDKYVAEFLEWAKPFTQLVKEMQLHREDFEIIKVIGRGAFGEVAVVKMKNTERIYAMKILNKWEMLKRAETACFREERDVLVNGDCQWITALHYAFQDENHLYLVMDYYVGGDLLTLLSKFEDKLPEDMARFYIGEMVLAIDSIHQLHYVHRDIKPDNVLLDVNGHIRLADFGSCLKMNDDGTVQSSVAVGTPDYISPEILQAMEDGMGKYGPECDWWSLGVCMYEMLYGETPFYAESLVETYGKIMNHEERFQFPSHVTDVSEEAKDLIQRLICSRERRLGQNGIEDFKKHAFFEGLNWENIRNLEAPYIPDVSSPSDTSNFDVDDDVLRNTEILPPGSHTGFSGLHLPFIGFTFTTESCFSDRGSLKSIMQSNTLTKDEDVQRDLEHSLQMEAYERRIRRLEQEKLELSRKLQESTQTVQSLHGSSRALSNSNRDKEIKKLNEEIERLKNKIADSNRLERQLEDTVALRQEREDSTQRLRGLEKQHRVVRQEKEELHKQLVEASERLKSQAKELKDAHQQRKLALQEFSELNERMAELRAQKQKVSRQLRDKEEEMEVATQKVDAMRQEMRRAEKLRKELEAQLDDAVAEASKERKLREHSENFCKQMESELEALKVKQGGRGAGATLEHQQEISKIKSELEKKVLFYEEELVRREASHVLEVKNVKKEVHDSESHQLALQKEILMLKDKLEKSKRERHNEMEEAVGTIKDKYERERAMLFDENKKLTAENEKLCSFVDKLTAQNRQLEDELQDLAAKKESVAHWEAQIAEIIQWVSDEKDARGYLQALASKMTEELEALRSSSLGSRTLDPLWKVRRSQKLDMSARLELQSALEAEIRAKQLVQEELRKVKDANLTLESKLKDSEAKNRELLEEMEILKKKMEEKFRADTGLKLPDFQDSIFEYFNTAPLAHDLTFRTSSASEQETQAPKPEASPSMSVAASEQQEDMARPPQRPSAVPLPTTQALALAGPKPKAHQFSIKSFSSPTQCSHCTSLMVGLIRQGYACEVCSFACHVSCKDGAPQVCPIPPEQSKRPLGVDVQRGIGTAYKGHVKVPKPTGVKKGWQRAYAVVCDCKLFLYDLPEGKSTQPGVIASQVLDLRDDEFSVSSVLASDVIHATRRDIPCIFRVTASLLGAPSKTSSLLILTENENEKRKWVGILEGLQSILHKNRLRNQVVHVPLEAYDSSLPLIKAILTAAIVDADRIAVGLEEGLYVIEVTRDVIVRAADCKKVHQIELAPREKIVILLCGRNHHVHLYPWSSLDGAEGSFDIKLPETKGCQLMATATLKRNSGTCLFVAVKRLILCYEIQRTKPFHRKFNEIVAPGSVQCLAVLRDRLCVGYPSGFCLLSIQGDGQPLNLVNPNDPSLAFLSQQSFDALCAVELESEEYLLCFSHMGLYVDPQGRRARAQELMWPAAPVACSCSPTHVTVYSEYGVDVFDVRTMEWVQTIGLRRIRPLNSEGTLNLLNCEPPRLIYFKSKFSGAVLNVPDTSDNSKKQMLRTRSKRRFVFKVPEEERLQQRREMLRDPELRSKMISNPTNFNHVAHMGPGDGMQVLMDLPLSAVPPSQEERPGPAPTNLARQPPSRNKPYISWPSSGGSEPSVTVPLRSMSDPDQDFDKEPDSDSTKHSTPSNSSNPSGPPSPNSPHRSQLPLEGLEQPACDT
UniProt Q5VV42: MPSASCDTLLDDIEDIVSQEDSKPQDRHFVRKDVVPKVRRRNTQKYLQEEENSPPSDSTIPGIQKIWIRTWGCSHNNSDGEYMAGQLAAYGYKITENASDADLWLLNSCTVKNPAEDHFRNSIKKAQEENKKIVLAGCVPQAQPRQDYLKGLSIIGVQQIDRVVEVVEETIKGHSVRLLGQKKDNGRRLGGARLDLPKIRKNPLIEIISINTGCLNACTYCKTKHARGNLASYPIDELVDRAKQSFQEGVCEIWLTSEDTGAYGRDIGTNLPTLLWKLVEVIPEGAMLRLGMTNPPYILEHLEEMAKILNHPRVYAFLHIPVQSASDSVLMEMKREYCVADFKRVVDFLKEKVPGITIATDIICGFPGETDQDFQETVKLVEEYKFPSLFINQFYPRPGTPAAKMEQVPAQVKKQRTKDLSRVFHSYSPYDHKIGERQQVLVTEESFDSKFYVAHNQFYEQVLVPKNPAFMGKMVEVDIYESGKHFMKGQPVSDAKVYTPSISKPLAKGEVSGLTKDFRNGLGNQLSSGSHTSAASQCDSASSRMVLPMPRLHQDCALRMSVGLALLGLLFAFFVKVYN
UniProt Q9BWU1: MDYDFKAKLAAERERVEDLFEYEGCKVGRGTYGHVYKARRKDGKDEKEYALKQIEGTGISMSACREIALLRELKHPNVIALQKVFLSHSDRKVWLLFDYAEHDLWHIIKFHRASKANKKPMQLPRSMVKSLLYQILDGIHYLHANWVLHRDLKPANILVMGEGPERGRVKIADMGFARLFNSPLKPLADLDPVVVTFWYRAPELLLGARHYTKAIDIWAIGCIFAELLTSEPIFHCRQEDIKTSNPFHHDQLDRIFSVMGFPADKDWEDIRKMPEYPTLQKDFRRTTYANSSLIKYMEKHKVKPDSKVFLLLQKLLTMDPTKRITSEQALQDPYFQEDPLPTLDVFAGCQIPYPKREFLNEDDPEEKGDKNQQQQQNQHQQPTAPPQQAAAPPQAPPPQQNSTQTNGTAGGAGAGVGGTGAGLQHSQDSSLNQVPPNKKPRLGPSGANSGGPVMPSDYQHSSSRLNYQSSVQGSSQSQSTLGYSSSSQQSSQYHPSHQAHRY
UniProt O14735: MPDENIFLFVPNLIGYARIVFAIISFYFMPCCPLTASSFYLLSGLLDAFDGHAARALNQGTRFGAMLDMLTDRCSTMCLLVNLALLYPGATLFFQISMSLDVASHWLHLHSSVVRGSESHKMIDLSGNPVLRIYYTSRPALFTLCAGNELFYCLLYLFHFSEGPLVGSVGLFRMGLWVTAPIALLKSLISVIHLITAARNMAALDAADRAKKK

These targets were tested with Cc1ccc(-n2nc(C(C)(C)C)cc2NC(=O)Nc2ccc(OCCN3CCOCC3)c3ccccc23)cc1 [doramapimod] (assay: log2 fold change, soluble protein after heating vs DMSO (PISA); higher = thermal stabilisation; K562 lysate, 10 uM; active = over 0.2 and 3.5 SD of the protein, either way, in both replicates (recomputed)).
Method in brief: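 Dounce homogenisation of K562 pellets in PBS pH 7.4 with 1 mM MgCl2 produced a crude extract, used at 1 mg/mL protein. Exposure to 10 μM compound lasted 30 min, and aliquots were then heated for 3 min across 48°C-58°C, pooled and brought to 0.5% NP-40 at 4°C. The supernatant after 21,000xg for 90 min was quantified by TMTpro 16plex LC-MS/MS with channel sums equalised. Duplicate values are given as log-two fold change in thermal stability relative to solvent controls.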
In the case of CEP350 (UniProt Q5VT06), the log2 fold change is reported as inactive: 0.009. CEP170 (UniProt Q5SW79) was tested, and the log2 fold change was inactive: 0.016. With CFH (UniProt P08603) the log2 fold change was inactive: 0.025. With CFL2 (UniProt Q9Y281) the log2 fold change was inactive: -0.004. With CFDP1 (UniProt Q9UEE9) the log2 fold change was inactive: 0.041. For CEP97 (UniProt Q8IW35), the log2 fold change was inactive: -0.025. For CDCA3 (UniProt Q99618), the log2 fold change was inactive: 0.088. In the case of CDC42 isoform 1 (UniProt P60953), the log2 fold change is reported as inactive: 0.034. With CENPH (UniProt Q9H3R5) the log2 fold change was inactive: 0.015. CERS2 (UniProt Q96G23) was tested, and the log2 fold change was inactive: -0.015. In the case of CDC45 isoform 3 (UniProt O75419), the log2 fold change is reported as inactive: -0.002. CFL1 (UniProt P23528) was tested, and the log2 fold change was inactive: -0.023. CENPK (UniProt Q9BS16) was tested, and the log2 fold change was inactive: -0.092. With CDCP1 (UniProt Q9H5V8) the log2 fold change was inactive: 0.003. In the case of CDC26 (UniProt Q8NHZ8), the log2 fold change is reported as inactive: 0.131. In the case of CENPU (UniProt Q71F23), the log2 fold change is reported as inactive: 0.052. CDC42BPB (UniProt Q9Y5S2) was tested, and the log2 fold change was inactive: 0.199. For CEP85 isoform 2 (UniProt Q6P2H3), the log2 fold change was inactive: -0.011. With CDKAL1 (UniProt Q5VV42) the log2 fold change was inactive: -0.009. With CEP135 (UniProt Q66GS9) the log2 fold change was inactive: -0.001. In the case of CDK19 (UniProt Q9BWU1), the log2 fold change is reported as inactive: 0.344. With CEP76 (UniProt Q8TAP6) the log2 fold change was inactive: 0.085. In the case of CDIPT (UniProt O14735), the log2 fold change is reported as inactive: 0.07.
